PubChem BioAssay AID1159584 – Peter MacCallum Cancer Centre – 2016
Assay: 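Genes whose loss is lethal only together with E-cadherin loss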 (primary screen). System: human MCF10A breast epithelial cells, parental and CDH1-null. Reagent: siRNA against human genes. Detection: 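ATP luminescence (CellTiter-Glo) viability per line relative to mean mock wells over all plates, and the ratio of CDH1-null to parental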. Reading the numbers: CDH1-null / parental viability ratio: higher = CDH1-null cells survive relatively better than parental; CDH1-null viability vs mock: higher = more viable CDH1-null cells; parental viability vs mock: higher = more viable parental cells.
Shown is a random part of about 18,000 reagents tested. Not given: the amount of reagent, the time to read-out.

no.	gene	CDH1-null / parental viability ratio	CDH1-null viability vs mock (fraction of mock)	parental viability vs mock (fraction of mock)
1	C11orf52	0.92	0.58	0.63
2	UXT	1.39	0.92	0.66
3	ANKHD1-EIF4EBP3	1.04	0.96	0.92
4	NR2F6	0.97	0.74	0.76
5	POTEG	0.89	0.72	0.81
6	CCDC112	0.77	0.63	0.82
7	RPS18	1.19	0.31	0.26
8	PLTP	1.31	0.76	0.58
9	MED26	0.72	0.26	0.36
10	OR52L1	1.15	1.09	0.95
11	SEZ6L2	1.26	1.06	0.84
12	GLB1L3	1.01	0.81	0.8
13	ETV2	1.09	1.08	0.99
14	PITRM1	1.45	0.9	0.62
15	PHLPP1	1.03	1.12	1.09

Look-ups from the entries so far.
RPS18, CDH1-null viability vs mock (fraction of mock) = 0.31
Result of PITRM1 under “parental viability vs mock (fraction of mock)”: 0.62
POTEG, CDH1-null / parental viability ratio = 0.89
Entry of SEZ6L2 under “CDH1-null / parental viability ratio”: 1.26

More results:
no.	gene	CDH1-null / parental viability ratio	CDH1-null viability vs mock (fraction of mock)	parental viability vs mock (fraction of mock)
16	FOXO4	1.12	1.12	1
17	ZNF37A	0.88	0.44	0.5
18	CIMIP2A	0.88	0.56	0.64
19	CATSPER3	1.22	0.88	0.72
20	SACK1D	0.94	0.81	0.86
21	AKR1C4	1.07	1.03	0.96
22	TIAM1	0.82	0.64	0.78
23	KCNS3	1.27	0.99	0.78
24	NAA50	0.7	0.63	0.9
25	TEKT1	1.21	1.04	0.86
26	AHCYL2	1.21	0.88	0.73
27	ZFHX3	1.18	1.06	0.9
28	SLC37A3	0.99	0.93	0.94
